Laboratory results taken from article PMC6642205.
No constants are given. Whether binding was seen depends on the method and setting. Binding seen in cells or lysates may run through a third protein. Where a sequence is shown, tags or fusion partners need not be part of it.

Target: MAVS without the transmembrane domain (TM)
Assay: co-IP; […] antibody and Protein G beads, 4 °C, 5 h; immunoblot

binding: no binding
B1: NLK (Nemo-like kinase), transfected, tag not stated (enzyme, UniProt Q9UBE8 1-527)
chain: MSLCGARANAKMMAAYNGGTSAAAAGHHHHHHHHLPHLPPPHLHHHHHPQHHLHPGSAAAVHPVQQHTSSAAAAAAAAAAAAAMLNPGQQQPYFPSPAPGQAPGPAAAAPAQVQAAAAATVKAHHHQHSHHPQQQLDIEPDRPIGYGAFGVVWSVTDPRDGKRVALKKMPNVFQNLVSCKRVFRELKMLCFFKHDNVLSALDILQPPHIDYFEEIYVVTELMQSDLHKIIVSPQPLSSDHVKVFLYQILRGLKYLHSAGILHRDIKPGNLLVNSNCVLKICDFGLARVEELDESRHMTQEVVTQYYRAPEILMGSRHYSNAIDIWSVGCIFAELLGRRILFQAQSPIQQLDLITDLLGTPSLEAMRTACEGAKAHILRGPHKQPSLPVLYTLSSQATHEAVHLLCRMLVFDPSKRISAKDALAHPYLDEGRLRYHTCMCKCCFSTSTGRVYTSDFEPVTNPKFDDTFEKNLSSVRQVKEIIHQFILEQQKGNRVPLCINPQSAAFKSFISSTVAQPSEMPPSPLVWE
